Assay results taken from PMC3350483, “Versatile Toolbox for High Throughput Biochemical and Functional Studies with Fluorescent Fusion Proteins” (PLoS ONE, 2012).
Results are given in words; binding and its absence hold for the method and conditions named. Binding seen in cells or lysates may run through a third protein. Some entries that bind do so weakly or less than the wild type.

Sequences of proteins named here, by UniProt entry; tags and fusion partners are left off.
UniProt P13864: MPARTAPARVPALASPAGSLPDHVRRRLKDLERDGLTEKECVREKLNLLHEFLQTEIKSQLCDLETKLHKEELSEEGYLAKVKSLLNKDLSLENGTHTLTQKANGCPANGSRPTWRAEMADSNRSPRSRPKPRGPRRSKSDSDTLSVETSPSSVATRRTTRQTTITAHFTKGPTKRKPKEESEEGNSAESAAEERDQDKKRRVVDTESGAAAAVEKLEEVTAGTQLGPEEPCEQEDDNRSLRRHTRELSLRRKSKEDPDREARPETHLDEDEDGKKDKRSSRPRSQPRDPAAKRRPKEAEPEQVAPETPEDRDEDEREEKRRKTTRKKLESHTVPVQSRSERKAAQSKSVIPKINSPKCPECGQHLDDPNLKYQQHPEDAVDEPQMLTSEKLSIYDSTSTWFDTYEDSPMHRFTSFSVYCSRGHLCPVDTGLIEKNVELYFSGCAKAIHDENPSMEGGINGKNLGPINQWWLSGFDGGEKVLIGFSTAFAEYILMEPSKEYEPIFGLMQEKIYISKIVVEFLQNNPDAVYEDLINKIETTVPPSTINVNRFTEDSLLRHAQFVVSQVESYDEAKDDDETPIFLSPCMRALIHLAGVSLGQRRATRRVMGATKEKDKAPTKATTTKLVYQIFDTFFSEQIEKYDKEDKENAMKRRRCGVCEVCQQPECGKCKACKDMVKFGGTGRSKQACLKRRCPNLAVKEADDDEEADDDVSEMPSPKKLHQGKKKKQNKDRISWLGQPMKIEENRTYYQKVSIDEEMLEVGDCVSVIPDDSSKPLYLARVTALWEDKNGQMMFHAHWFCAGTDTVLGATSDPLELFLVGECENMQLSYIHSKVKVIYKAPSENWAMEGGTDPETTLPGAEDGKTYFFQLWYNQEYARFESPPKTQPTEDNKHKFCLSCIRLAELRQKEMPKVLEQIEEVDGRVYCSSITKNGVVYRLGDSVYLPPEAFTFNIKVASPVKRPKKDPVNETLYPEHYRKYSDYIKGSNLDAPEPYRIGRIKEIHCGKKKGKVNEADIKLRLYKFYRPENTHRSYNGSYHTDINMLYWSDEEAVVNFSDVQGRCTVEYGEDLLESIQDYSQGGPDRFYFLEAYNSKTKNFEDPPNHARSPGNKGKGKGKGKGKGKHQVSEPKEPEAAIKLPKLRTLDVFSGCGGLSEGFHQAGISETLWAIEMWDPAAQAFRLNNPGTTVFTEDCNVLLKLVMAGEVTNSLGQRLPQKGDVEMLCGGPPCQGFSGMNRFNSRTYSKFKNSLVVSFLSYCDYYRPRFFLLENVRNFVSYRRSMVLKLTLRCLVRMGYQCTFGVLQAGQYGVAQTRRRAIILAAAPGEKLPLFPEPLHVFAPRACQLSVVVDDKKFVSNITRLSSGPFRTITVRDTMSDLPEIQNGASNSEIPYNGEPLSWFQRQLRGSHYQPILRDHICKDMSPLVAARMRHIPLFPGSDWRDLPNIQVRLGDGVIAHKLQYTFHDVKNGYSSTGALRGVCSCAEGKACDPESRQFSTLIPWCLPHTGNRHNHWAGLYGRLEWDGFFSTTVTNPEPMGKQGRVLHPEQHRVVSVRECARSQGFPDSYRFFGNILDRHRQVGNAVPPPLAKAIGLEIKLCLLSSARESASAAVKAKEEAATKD
UniProt P12004: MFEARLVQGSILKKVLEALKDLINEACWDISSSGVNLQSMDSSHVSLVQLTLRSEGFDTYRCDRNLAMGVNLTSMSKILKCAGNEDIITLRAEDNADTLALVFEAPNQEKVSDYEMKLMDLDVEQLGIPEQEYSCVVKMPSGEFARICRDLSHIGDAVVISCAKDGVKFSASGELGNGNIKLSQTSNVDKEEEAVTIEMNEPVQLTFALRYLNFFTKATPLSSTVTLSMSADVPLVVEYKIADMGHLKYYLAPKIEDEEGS

Molecular target: GFP-Dnmt1 (UniProt P13864)
Test: co-IP + ELISA; GFP fusion precipitated from HEK293T extract on the GFP-multiTrap plate; bound fractions cross-linked with 2% formaldehyde and/or permeabilized with MeOH; endogenous PCNA or histone H3 detected by antibody, absorbance at 450 nm

In the case of “endogenous PCNA (from UniProt P12004 1-261)”, the binding is reported as “binds”.
